Record: PubChem BioAssay AID652259 (Drosophila RNAi Screening Center, 2013)
Screen: 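Genome-wide hunt for genes that control Wingless pathway activity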 (primary screen). Cell system: Drosophila clone 8 imaginal disc epithelial cells. Reagent: long dsRNA against Drosophila genes. Treatment: pathway stimulated by co-transfected Wingless expression plasmid. Measurement: 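Firefly luciferase from a tcf-site Wingless reporter, measured alongside co-transfected Renilla luciferase that tracks transfection; pathway stimulated by a Wingless plasmid; the firefly-to-Renilla ratio is not deposited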. Reading the numbers: firefly reporter light: higher = more Wg reporter light, before normalisation; Renilla control light: higher = more transfected or surviving cells. Hit rule: 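a knock-down is a candidate when at least two out of four statistical tests show it departing from its plate mean; one test alone signals a weak candidate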. Calls: active = candidate regulator (raises or lowers reporter); inactive = not a candidate.
The screen tested about 22,000 reagents; this is a random part of those with a known target gene and a result. Over the whole deposit, 233 (1.1%) were called active. 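Light values are raw, unnormalised plate reads; the ratio scores behind the reporter calls were not deposited.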 Unmarked entries are inactive. Names joined by + are all predicted targets of the reagent. Reagent sequences are not shown. Not stated in the record: the amount of reagent, the time to read-out, the dose of the treatment.

no.	predicted target	dsRNA	firefly reporter light, replicate 1	firefly reporter light, replicate 2	Renilla control light, replicate 1	Renilla control light, replicate 2
1	B4	DRSC01868	5508		2874	
2	B4	DRSC03175	5552	7382	1507	2179
3	Rab4 + CG42239	DRSC05667	18272		12176	
4	TMEM216	DRSC16378	15784		4533	
5	CG18095	DRSC01948	2820	10080	1367	4361
6	AgmNAT	DRSC18072	12348		6362	
7	eIF4E5	DRSC10975	596	5113	784	3040
8	CG33252	DRSC19162	4048		1552	
9	PolE1	DRSC16112	2160	4027	1082	2240
10	gkt + CR31953	DRSC00709	8181		3920	
11	dpr8	DRSC19406	14208		7497	
12	dpr8	DRSC19600	20688		9376	
13	dpr8	DRSC19938	19834		9286	
14	dpr8	DRSC19939	21910		9760	
15	RpL22-like	DRSC04582	4803	5968	534	3200
16	CG12121	DRSC17816	21939		10999	
17	CG31710	DRSC01089	23761		12714	
18	CG31710	DRSC22863	6.12e5	6.37e5	3.20e5	3.96e5
19	CG9782	DRSC19145	4240		899	
20	CG9782	DRSC20209	26897		10744	
21	CG11626	DRSC14336	13765		3031	
22	CG15432	DRSC00447	3506	8220	342	1489
23	CG6428	DRSC18402	18193		6723	
24	CG3529	DRSC10369	4368		1666	
25	Ptp36E	DRSC03021	2838	9353	1449	4896
26	CG11400	DRSC06070	4356		1764	
27	CG10909	DRSC14282	16600		5589	
28	ppk16	DRSC02736	1399	6315	528	2684
29	CG42850 (retired record)	DRSC00872	3191		946	
30	Pgm2a	DRSC07068	8586		2982	
31	CG10761	DRSC17753	16848		8421	
32	CG14325	DRSC14804	12486		2019	
33	CG42365	DRSC04266	1452	6449	649	2576
34	Bhmt	DRSC02079	1659	7842	436	2074
35	CG31220	DRSC22248	5.52e5	4.25e5	1.84e5	2.24e5
36	Spn43Aa	DRSC06117	18112		4985	
37	CG14764	DRSC05072	17083		8070	
38	CG14764	DRSC06498	9485		3089	
39	CG14764	DRSC06844	2802	7344	760	2569
40	CG4757	DRSC14130	17363		4657	
41	CG17855	DRSC02638	2401	10530	896	3276
42	sand	DRSC07245	2784	4380	881	2096
43	RanGAP	DRSC22003	5.51e5	5.97e5	1.49e5	1.70e5
44	CG33234	DRSC07994	3083		1719	
45	Tusp	DRSC15838	6806		2836	
46	CG11131	DRSC11636	23536		7929	
47	CG11131	DRSC21736	3.45e5	3.88e5	1.55e5	1.33e5
48	Lcp4	DRSC07458	5143	7501	1224	2576
49	larp	DRSC14728	9984		3632	
50	larp	DRSC16984	5674		2928	
51	larp	DRSC21856	4.95e5	5.73e5	1.89e5	2.23e5
52	CG45067	DRSC08414	6186		2716	
53	anchor	DRSC10861	2694		1320	
54	Or98b	DRSC16775	9788		3772	
55	Or98b	DRSC21751	2.27e5	3.21e5	1.11e5	1.19e5
56	RpL32	DRSC16835	6459		1671	
57	ND-18	DRSC19441	17923		7113	
58	Ir60a	DRSC04212	1997	4443	452	1929
59	CG32212 + hpRNA:CR33940	DRSC09618	2808		1681	
60	CG18557	DRSC00524	2096	5511	928	2402
61	CG7963	DRSC16355	15056		3205	
62	kmr	DRSC12986	5292		2028	
63	kmr	DRSC14827	20231		2634	
64	kmr	DRSC14828	9762		1457	
65	kmr	DRSC16472	6002		2333	
66	Alp7	DRSC04355	1975	6973	505	2064
67	CG1463	DRSC19603	2851	4764	859	1620
68	CG40498	DRSC07786	18880		10800	
69	TpnC47D	DRSC07564	9715		3824	
70	Camta	DRSC06440	2909	7324	491	2259
71	Camta	DRSC06441	4147	10290	993	4201
72	Camta	DRSC07272	8061		2008	
73	CG14760	DRSC06495	2036	6269	496	2432
